These results are taken from the supplement of paper PMC10403144.

SMILES strings stand for the structures. The list shows a part of the results.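 The calls were made as follows: active = mitochondrial OCR inhibition above 30% at 1 uM; inactive = 30% or less.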 Single values are uncertain, as repeats are few or missing.

The test system of one test is Toxoplasma gondii RH tachyzoites. The test is described as follows: inhibition of mitochondrial O2 consumption rate (% inhibition (relative to pre-injection OCR and atovaquone/antimycin A control)); higher = stronger ETC inhibition. The following applies: 1 µM; injection port (sequential injection order): B.
As for `COC(=O)c1c(NC(=O)c2cc3ccccc3oc2=O)sc2c1CCN(Cc1ccccc1)C2`, the “inhibition of mitochondrial O2 consumption rate” value (shortened to “inhibition”) is inactive: 5.06.
Take `N=C(N)c1ccc(OCCCCCOc2ccc(C(=N)N)cc2)cc1`: the “inhibition” value is inactive: -0.737.
Same read-out and setting: the result for `CC(C)C(C(=O)Nc1ccc(S(=O)(=O)N(C)C)cc1)c1ccc(Cl)cc1` (stereo unspecified) reads inactive: -9.09.
On the same count and under the same terms, the result for `Nc1ncnc2c1ncn2C[C@@H](O)[C@@H](O)C(=O)O` reads inactive: -2.86; that for `OCCc1ccc(Nc2nccc(-c3nnc4ccccn34)n2)cc1`, inactive: -3.21; that for `CN1CCCN(C(c2ccccc2)c2ccc(Cl)cc2)CC1` (stereo unspecified), inactive: -1.85.
The same measure, in the same setting: the value for `CC(C)C(NC(=O)Cc1cccc2ccccc12)C(=O)Nc1cccc(C#N)c1` (stereo unspecified) was inactive: 3.72; that for `Cc1nc(-c2ccccn2)nc(N(C)CCc2ccccc2)c1Cl` was inactive: -2.59; that for `c1ccc(-c2cc(N3CCCCC3)c3ccccc3n2)nc1` was inactive: -6.74.
Regarding `COc1ccccc1CNC(=O)c1cc(C2CC2)nc2c1cnn2C(C)C`, the “inhibition” value was inactive: 6.73.
As for `Nc1nc(N)c2c3c(sc2n1)CN(Cc1ccccc1)CC3`, the “inhibition” value is inactive: 6.74.
As to `Cc1nn(C(=O)Nc2cccc(C(F)(F)F)c2)c(C)c1Sc1ncccn1`, the “inhibition” value is inactive: -17.3.
`O=C(NCCN1CCCC1)c1cc(NCCN2CCOCC2)nc2ccc(Cl)cc12`: the “inhibition” value is inactive: -12.2.
With `C[C@]1(O)C[C@@H](c2nc(-c3ccc4ccc(-c5ccccc5)nc4c3)c3c(N)nccn32)C1`, the “inhibition” value was inactive: -0.673.

The test is the same for the next values; noted with them: 1 µM; injection port (sequential injection order): C.
`Cc1cc(NCC(C)C)c2n[nH]c(-c3ccccc3)c2n1`: the “inhibition” value is inactive: -17.1.
Same read-out and setting: the result for `c1cncc(NCc2ccc(-c3cc4ccncc4cc3OC3CCNCC3)s2)c1` reads inactive: -29.2; that for `Cc1ccc2[nH]c(C3CCCNC3)c(-c3ccncc3)c2c1` (stereo unspecified), inactive: 1.81; that for `CC(C)(C)c1cnc(NC(=O)c2ccccc2O)s1`, inactive: -6.79.
As for `O=C(Nc1ccc(C(F)(F)F)c(C(F)(F)F)c1)c1cc(Cl)ccc1O`, the “inhibition” value is inactive: -42.3.
For the compound `COc1ccc(S(=O)(=O)Nc2ccc(CN3CCN(C(=O)c4cccc(C#N)c4)CC3)cc2)cc1`, the “inhibition” value was inactive: -13.9.
For the compound `CC1=Nc2ccc(Cl)cc2C(O)(c2ccc(C)cc2)N1CCN1CCCCC1` (stereo unspecified), the “inhibition” value is inactive: -14.3.
On the same count and under the same terms, the value for `CCc1ccc(S(=O)(=O)Nc2cc(CN3CCN(CCC(C)C)CC3)ccc2C)cc1` was inactive: -7.98; that for `CC(C)(C(=O)Nc1ccc(F)cc1)n1cc(-c2ccccc2F)cn1` was inactive: 2.46.
Turning to `CCOc1ccccc1NC(C)C(=O)Nc1cc(C(F)(F)F)ccc1N1CCOCC1` (stereo unspecified), the “inhibition” value was inactive: -10.5.
Same read-out and setting: the value for `NC(=O)c1cc(Br)ccc1OCCOc1ccccc1` was inactive: -6.41.
Take `CN1CCN(S(=O)(=O)c2ccc(-c3ccc4c(Nc5ncc(Cl)cn5)ccnc4c3)cc2)CC1`: the “inhibition” value is inactive: -18.3.
